The source of these data is publication PMC9170289.

No constants are given. Whether binding was seen depends on the method and setting. Some results given as binding are weak or reduced against the parent protein; the word gives no strength.

In the experiment the target is T1, Dcp2-ND244 (726-amino acid C-terminal fragment) (S. cerevisiae) (UniProt P53550).
T1 sequence: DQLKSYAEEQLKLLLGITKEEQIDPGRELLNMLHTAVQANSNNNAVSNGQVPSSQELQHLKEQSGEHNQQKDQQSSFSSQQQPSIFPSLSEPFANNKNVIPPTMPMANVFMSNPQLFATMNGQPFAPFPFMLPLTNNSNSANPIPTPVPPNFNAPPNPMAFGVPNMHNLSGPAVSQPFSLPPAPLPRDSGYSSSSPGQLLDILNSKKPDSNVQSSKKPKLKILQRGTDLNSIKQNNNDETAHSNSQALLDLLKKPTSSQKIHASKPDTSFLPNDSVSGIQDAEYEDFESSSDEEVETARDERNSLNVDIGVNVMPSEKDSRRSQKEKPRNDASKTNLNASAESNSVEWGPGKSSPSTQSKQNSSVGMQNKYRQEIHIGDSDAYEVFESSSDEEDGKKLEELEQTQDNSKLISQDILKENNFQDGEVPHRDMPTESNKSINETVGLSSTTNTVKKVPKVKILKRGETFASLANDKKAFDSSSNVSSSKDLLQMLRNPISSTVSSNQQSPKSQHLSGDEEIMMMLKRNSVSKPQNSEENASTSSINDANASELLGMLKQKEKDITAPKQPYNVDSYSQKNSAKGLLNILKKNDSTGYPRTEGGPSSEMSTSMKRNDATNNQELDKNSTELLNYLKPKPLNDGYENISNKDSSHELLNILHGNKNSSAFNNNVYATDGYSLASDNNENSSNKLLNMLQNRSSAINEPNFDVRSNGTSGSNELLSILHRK
Description: two-hybrid; GAL4(DB) fusion and GAL4(AD) fusion cotransformed into the wild-type tester strain GGY1::171; X-Gal colony colour on SSX plates, 30°C; pairs said to be unaffected were also tested in upf1Δ, pat1Δ, scd6Δ, edc3Δ or dcp2-N245 derivatives.

B1: Scd6 (protein, UniProt P45978 1-349)
chain: MSQYIGKTISLISVTDNRYVGLLEDIDSEKGTVTLKEVRCFGTEGRKNWGPEEIYPNPTVYNSVKFNGSEVKDLSILDANINDIQPVVPQMMPPASQFPPQQAQSPPQAQAQAHVQTNPQVPKPESNVPAAVAGYGVYTPTSTETATASMNDKSTPQDTNVNSQSRERGKNGENEPKYQRNKNRSSNRPPQSNRNFKVDIPNEDFDFQSNNAKFTKGDSTDVEKEKELESAVHKQDESDEQFYNKKSSFFDTISTSTETNTNMRWQEEKMLNVDTFGQASARPRFHSRGLGRGRGNYRGNRGNRGRGGQRGNYQNRNNYQNDSGAYQNQNDSYSRPANQFSQPPSNVEF
B1: the binding entry is given as “binds”.
